From patent US20250066835A1 (priority 2021, published 2025)
At least one compound was matched to its structure with a doubt left.

Columns and labels:
Escherichia coli = experiment: PTA staining after imipenem treatment; format: cell-based; conditions: Escherichia coli treated with imipenem
Pseudomonas aeruginosa = experiment: PTA staining after imipenem treatment; format: cell-based; conditions: Pseudomonas aeruginosa treated with imipenem

C[C@@H](O)[C@H]1C(=O)N2C(C(=O)O)=C(SCCN=CN)C[C@H]12 [imipenem]
bacteria having high image brightness by PTA staining (Escherichia coli): increased | bacteria having high image brightness by PTA staining (Pseudomonas aeruginosa): increased
